According to the supplement of paper PMC3334620:
Whole data set: some 33,000 sequences, median “E-score (-0.5 to 0.5)” near -0.0014, cut for the highest 2% near 0.25. The list shows a part of the results.

target: T1, Cad1 (UniProt P24813); assay: PBM E-score (8-mer binding enrichment) (E-score (-0.5 to 0.5)); higher = stronger / more preferred TF binding; conditions: protein concentration: 100 nM; construct: GST-full length
T1 sequence: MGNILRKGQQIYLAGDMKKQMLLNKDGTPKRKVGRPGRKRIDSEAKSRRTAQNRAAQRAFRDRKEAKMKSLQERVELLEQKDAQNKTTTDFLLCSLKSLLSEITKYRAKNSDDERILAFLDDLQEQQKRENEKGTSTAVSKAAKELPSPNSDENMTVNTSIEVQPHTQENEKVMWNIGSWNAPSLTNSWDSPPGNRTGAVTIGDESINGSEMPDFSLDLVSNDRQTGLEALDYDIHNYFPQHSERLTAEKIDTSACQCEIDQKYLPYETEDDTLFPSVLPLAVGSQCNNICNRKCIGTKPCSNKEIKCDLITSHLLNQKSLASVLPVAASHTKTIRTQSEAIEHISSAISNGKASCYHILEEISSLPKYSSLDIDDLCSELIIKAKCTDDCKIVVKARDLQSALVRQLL
Procedure, shortened: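 PURExpress in vitro transcription/translation supplied GST-tagged yeast transcription factors, either full-length or DNA-binding domain. Applied at about 100-200 nM to universal all-10-mer Agilent arrays double-stranded by primer extension, the bound protein was detected with fluorescent anti-GST. E-scores, modified Wilcoxon-Mann-Whitney statistics, were given by the Universal PBM Analysis Suite to ungapped eight-base words pooled with their reverse complements after masliner normalisation.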

Sequence | PBM E-score
GCGCTAGC | 0.038
CGCAGCCC | 0.0695
GGCCGACA | -0.0392
GGACAGCC | -0.0133
ATCTGGAG | -0.084
TAGGTTGA | 0.0128
CCGTGTGC | -0.0553
GCAAGACC | 0.0306
CCTTCGGC | -0.145
CACATTGG | 0.0699
ATCAATCA | 0.13
CGGCTGAA | -0.0881
AAATCACT | 0.141
ACGCTCCT | -0.0254
CTGTCTCC | -0.102
TACAGGTA | -0.0331
CATCGCGG | 0.189
ATGCCATG | 0.115
TGCTGAAA | -0.0176
AGCGCATC | 0.0309
GGCGCCCC | -0.173
CGAGACGA | 0.0054
ATTAGGCA | -0.0653
AGGAATAT | 0.191
GCTTGCAC | -0.00949

Sequence | PBM E-score
CCTATCAC | -0.0733
AAACCGGC | 0.0007
TCTATGCA | 0.0316
ACACTAAG | 0.00509
CTGTACCA | -0.154
AATGCTGC | 0.0933
CACGCGTA | 0.124
ATGACGTG | 0.117
GACCACGA | 0.0423
ACGAAGCC | -0.146
GGCATTCA | -0.133
GCAGTGAC | 0.0371
GTGCTAGA | -0.253
GGAAAAAC | 0.141
AGCGCAAA | 0.189
AACTAGAT | 0.0841
GACGGCGC | -0.0139
CCCATACC | -0.0736
GAACATCC | 0.193
TCCTTACA | 0.00161
CGTCCTAC | -0.0724
AGACCAGG | -0.182
ATAGTAAT | 0.217
AGTTACAA | 0.0164
ATCTGGAA | -0.0375

Taken from the listing for reference:
Sequence | PBM E-score
ACACTAAG | 0.00509
CTGTACCA | -0.154
AATGCTGC | 0.0933
CACGCGTA | 0.124
ATGACGTG | 0.117

(listing goes on)

Sequence | PBM E-score
CCGTACAC | 0.0248
CAAGGGGG | -0.39
GCCACGCA | -0.0565
AAGTGTGA | -0.128
CCAGTTCC | 0.0254
CGGCGGCA | 0.0859
CGGCAGTC | -0.0443
TATAGCCA | 0.126
ATACGTTG | -0.0524
CGCATCAC | -0.0751
ATCTCGCC | -0.0589
TCCGGCCA | -0.157
AAACCTTT | -0.167
AAAGATCT | -0.0667
TACTTATA | 0.0796
CATGTCGA | 0.134
TAATTTGA | 0.106
CGTCAAAC | -0.0838
AACCGCTA | -0.126
CGCTGCGC | -0.0164
AAGTCGAA | -0.0588
ATCAATAA | 0.186
GCTGTCCA | -0.0173
TCAGTCCA | -0.182
CTTTGAAA | 0.116

Sequence | PBM E-score
AACCAATT | 0.297
AAGCTAGT | 0.125
CCAGTTTA | -0.0989
AACTTCTA | -0.118
TAATACCA | 0.213
AGCGTCGG | 0.0643
ACAGAGAG | -0.283
CCATGTTA | 0.0237
AGCGATAG | -0.0389
CCTCGTAA | 0.136
CGCAGGCG | -0.151
ACGAGACC | -0.00034
AGGACCTA | 0.025
TAGGCGAA | -0.123
GCGGTCAC | -0.166
AGGTCACA | -0.217
AATGACAA | 0.201
CAGGGCGG | -0.185
AACAACGA | 0.105
ACTAGTGG | 0.0192
AGTCTGTC | 0.0174
AGAGACGG | 0.0418
